Test results reported in article PMC10163288.
The list shows a part of the results.

B1: il10ra_site1_sap_19_mot_HHH_b2_02690_000000247_0001_1_16_H_._HHH_b1_06405_0001_0000400019_0000002_0_0001 (protein)
chain: SSSSDISELAARALRLAFQLSDEETLRKIWELFRRYIEEGDERYREELEELLEELEEKEKRSSSS
B2: il10ra_site1_normal_mot_be5bd3f495b2ba9d9abb66d04d14a4bf_0001_000000065_0001_37_51_H_._HHH_b1_01400_0001_0000300022_0000002_0_af2pred_0001 (protein)
chain: SSSSDEELEELVEEVVEKFKLSEEAKRALEYLAEYQLELGASEEEIRRSLEAAARLLELARSSSS
B3: il10ra_site1_sap_22_mot_HHH_b2_07144_000000289_0001_1_18_H_._HHH_b1_07059_0001_0000400054_0000001_0_0001 (protein)
chain: SSSSSSDEHARYAAALSRLAFRIRDQEEAHEVLRLAHRVAEEGDPELIEQAEELLKELSSSSSSS
B4: il10ra_site1_sap_9_mot_HHH_b2_04945_000000076_0001_1_19_H_._HHH_b1_07971_0001_0000200014_0000002_0_0001_af2pred_0001 (protein)
chain: SSSSSDEEKRAAEILLESAKRIEDPHLREAALRLAAAAARQAGDEELLEEIEELLKRVRSSSSSS
B5: il10ra_site1_sap_20_mot_HHH_b2_03425_000000200_0001_22_39_H_._HHH_b1_04109_af2_0001_0000500017_0000001_0_0001_af2pred_0001 (protein)
chain: SSSSSSEAEELYEELEEAVERNDPELVLRLLVLLAQLLRQTGDPRIRELVKEAAKLLAELSSSSS
B6: il10ra_site1_normal_mot_HHH_b1_08508_000000230_0001_42_56_H_._5ee4a038a4e38403a52b52cc808907e6_0001_1_0001_0000100002_0000001_1 (protein)
chain: DEEAVEAALEILKRLLPPEEQELLEQIEEVLKRDPEKAEELAEELLERTGNVAVFSLLYIIRRLK
B7: il10ra_site1_sap_19_mot_HHH_b1_08279_000000069_0001_43_57_H_._HHH_b1_07794_0001_0000200012_0000002_0_0001 (protein)
chain: SLEEQLEELLRELGVPPERIELLKDAFRRQREQGSPPEDVLRALLYLLHATGDPAREAVEELLER
B8: il10ra_site1_normal_mot_HHH_b1_04940_000000219_0001_1_18_H_._HHH_b2_03614_0001_0000700045_0000001_0 (protein)
chain: SSSSSDEEERRYVELALRFARNIPDEESRRFLLRAARQIAELAGDPELEELVREVEEELSSSSSS
B9: il10ra_site1_sap_24_mot_HHH_b2_02497_000000141_0001_1_20_H_._HHH_b1_04531_0001_0001300093_0000001_0_0001_af2pred_0001 (protein)
chain: SSSSSNEEIIRWLLRAIKELIERGNEEEARLAIKDAKHAIEFLGDDELERILRELEEELNSSSSS
B10: il10ra_site1_sap_23_mot_HHH_b1_06174_af2_000000107_0001_40_57_H_._HHH_b2_03963_0001_0000300024_0000001_0_0001 (protein)
chain: SSSSSDEEYEEEVERLLEEAKRIEDPDEWYRLLKEALELAAELGDEELQKLIMKVNRERISSSSS
B11: il10ra_site1_normal_mot_HHH_b1_02997_000000220_0001_39_52_H_._HHH_b1_07718_af2_0001_0000100003_0000001_0_af2pred_dldesign_0_af2pred (protein)
chain: SSSSSNEQTQEVTRLIREAIELRAAGKPEEAKKLLEKALELAKAAKNEIMIRNVEYLLSQLSSSS
B12: il10ra_site1_sap_24_mot_HHH_b1_01754_af2_000000279_0001_1_18_H_._HHH_b1_03088_af2_0001_0000600018_0000002_0_0001 (protein)
chain: SSSSDEEVEELLEEAREAAEEGDPERAIRLVLEALRLAIQARDPELLQAVWELVREIAELLSSSS
B13: il10ra_site1_normal_mot_HHH_b2_03220_af2_000000223_0001_23_40_H_._HHH_b2_01017_0001_0000100015_0000001_0_af2pred_0001 (protein)
chain: SSSSSSSKANEEILRLIREALEIDDEEEARKVLERAEELAEENNNEELLRIIRLLLKELSSSSSS
B14: il10ra_site1_sap_18_mot_HHH_b1_06914_000000280_0001_1_18_H_._HHH_b1_03095_af2_0001_0000200010_0000001_0_0001 (protein)
chain: SSSSSDDEEYERVLELLRRAARIDDEEEVEKLLEEAEELAKELGNRVLLLAIRRFRELLESSSSS
B15: il10ra_site1_normal_mot_HHH_b1_05329_000000008_0001_43_56_H_._HHH_b1_07352_0001_0000400047_0000001_0 (protein)
chain: SSSSDEFLRIIIEAFELATRLRDEETSHELWRLAMEYAREGDEKYRERLEELLEELEERLSSSSS
B16: il10ra_site1_normal_mot_HHH_b1_01821_000000158_0001_23_39_H_._HHH_b1_01350_af2_0001_0000300008_0000001_0 (protein)
chain: SSSSSSDEEREEAEELLEEAKHVEDPERFIELILEAVRLALRSGDEELLQEIWELFKRKSSSSSS
B17: il10ra_site1_normal_mot_3de50db98b9681956f4e62bdf409e650_0001_af2_000000052_0001_35_49_H_._HHH_b2_01222_0001_0000100001_0000002_0 (protein)
chain: SSSSSEEFLEKVLRLLLRAARLLLRGNPEEAEELLEEAERLAKEGNNPQAEEVVRHFKEVQSSSS
B18: il10ra_site1_sap_23_mot_HHH_b1_02062_000000185_0001_1_20_H_._HHH_b1_00494_0001_0000100012_0000002_0_0001 (protein)
chain: SSSSDYEEALRWLEESLQLAEELNDPEYIRNAARFLLQLAEQANDERIFEEAERILEEVNSSSSS
B19: il10ra_site1_sap_19_mot_HHH_b2_02567_af2_000000093_0001_41_57_H_._HHH_b2_04968_af2_0001_0000600030_0000002_0_0001 (protein)
chain: SSSSSDAEERVEELLEEAEQVEDEHEFAQILFEAMRLAHENNDQELFKEILRVAAELLDSSSSSS
B20: il10ra_site1_normal_mot_HHH_b1_05357_000000034_0001_23_39_H_._HHH_b2_06427_0001_0000400012_0000001_0_af2pred_0001 (protein)
chain: SSSSSSDVEEEVEELLEEAKQIDDQEEAAYLLTRAYALANQLNDPELEEEVRRVAKELSSSSSSS
B21: il10ra_site1_normal_mot_HHH_b1_05326_000000242_0001_1_20_H_._HHH_b2_01301_0001_0000200014_0000001_0 (protein)
chain: SSSSDEELQQVLELSREAFRLALRGNEEEARRVAEEALRLAEEAGDEQLFRVIEDQLRVRSSSSS
B22: il10ra_site1_sap_21_mot_HHH_b1_03314_af2_000000278_0001_42_55_H_._HHH_b1_07761_af2_0001_0000300012_0000001_0_0001_af2pred_0001 (protein)
chain: SSSSDIRERVLRLIREILELLRRGNEEEARELLEEAQELAEEGNNPLLRRSLEALERDLNSSSSS
B23: il10ra_site1_sap_19_mot_HHH_b2_03220_af2_000000223_0001_23_40_H_._HHH_b2_08011_af2_0001_0000900026_0000002_0_0001 (protein)
chain: SSSSDEEYLEMAIRFAEWLAEAGDPEAAERMIEAAIDLAKQLGDEELEEELRELLEELRRESSSS
B24: il10ra_site1_sap_11_mot_HHH_b1_05757_000000171_0001_42_57_H_._HHH_b1_08742_af2_0001_0000300003_0000001_0_0001_af2pred_0001 (protein)
chain: SSSSSEDEERASRLMREVLEALQRGDEERLEELLKELEELAEENNDELVKRYVETIKQMNSSSSS
B25: il10ra_site1_normal_mot_HHH_b2_01649_af2_000000191_0001_40_56_H_._HHH_b2_05814_0001_0000400020_0000001_0_af2pred_0001 (protein)
chain: SSSSSIKIAARFLLRDARAATTEELRKQVKYAIEALLELVERLNDEEAHEILKEAEELLRSSSSS
B26: il10ra_site1_sap_20_mot_HHH_b1_06804_000000054_0001_40_54_H_._HHH_b1_05559_0001_0000800044_0000001_0_0001 (protein)
chain: SSSSQERFEEAERVIEQVIRLLEEGNPEEARRLIEELEELAEELNDIALRSAVEALKRSVDSSSS
B27: il10ra_site1_normal_mot_HHH_b2_05813_000000266_0001_1_19_H_._HHH_b1_05552_af2_0001_0000600041_0000001_0 (protein)
chain: SSSSSELEEEFFQIAVEIQRLLDENDHEEAEKLVKELIEELERLNNERLLFAAEALERRIKSSSS
B28: il10ra_site1_normal_mot_HHH_b2_00277_af2_000000172_0001_1_17_H_._HHH_b2_06595_0001_0000300022_0000002_0 (protein)
chain: SSSSSDVEEEIEELLEEAKRIEDPEEAKEVILRAAALAARLRDPHLSFLVIEVYAELFQRSSSSS
B29: il10ra_site1_sap_21_mot_HHH_b1_05056_000000217_0001_1_20_H_._HHH_b1_07511_0001_0000400017_0000001_0_0001 (protein)
chain: SSSSTAAEFLLRQALEAAELLLEQGDEEKAEWALEIVERLAKEANDPEALRLAEELLEELSSSSS
B30: il10ra_site1_sap_24_mot_HHH_b2_04186_af2_000000278_0001_1_19_H_._HHH_b1_07341_af2_0001_0000600024_0000001_0_0001 (protein)
chain: SSSSDEEELERLLEEIEQAVEEGDREKFARLVLELLRLIYELGDKEMLRRLWELIKKFAEGSSSS
B31: il10ra_site1_normal_mot_HHH_b1_04065_000000255_0001_41_56_H_._HHH_b1_07236_0001_0000100003_0000001_1 (protein)
chain: SSSSDEEYRREVEELLEEAEQIEDPHERAEVLARALRRAYEGRDPELFRLVDRVAIELYFSSSSS
B32: il10ra_site1_sap_27_mot_HHH_b1_05056_000000217_0001_1_20_H_._HHH_b2_06141_0001_0000500014_0000001_0_0001 (protein)
chain: SSSSDLVEQAARFARALARAAGDEEAEEKVQEVEEALERGEISEQEALELLARIMREINKSSSSS
B33: il10ra_site1_normal_mot_HHH_b1_05056_000000217_0001_1_20_H_._HHH_b2_06393_af2_0001_0000900018_0000001_0 (protein)
chain: SSSSSDEEDEERVEELLEEAKHVPDPHEVSRILAEALRLAFELQDPELLRAVWEVVRELNSSSSS
B34: il10ra_site1_sap_24_mot_42f8b9a235e54c912819b8ab3aebd5a2_0001_af2_000000295_0001_34_48_H_._104f9518c2e4434ea70fdb64017d7000_0001_af2_0001_0000500026_0000001_0_0 … (protein)
chain: SSSSDEERLEELLERAEELLKEGNPEEAREVLYEATHLALQLSDKEVLRELWKLFREVAGSSSSS
B35: il10ra_site1_normal_mot_HHH_b2_02337_000000026_0001_38_52_H_._HHH_b2_04211_af2_0001_0000300011_0000002_0 (protein)
chain: SSSSDEEREEIEELIKEFEELLERGDREEAVRVVTEALQFALKLGDQELLKRIWELVKSLSSSSS
B36: il10ra_site1_normal_mot_HHH_b2_07521_000000141_0001_20_37_H_._HHH_b2_01325_0001_0000100016_0000001_1_af2pred_0001 (protein)
chain: SSSSDDEEAVRLSLRFARFLAEQGDPEAARIIIKAAEEIARRGNNPELEEEVEEVLRELNSSSSS
B37: il10ra_site1_sap_11_mot_47763b419dcba15278d0659274068abf_0001_af2_000000068_0001_35_48_H_._0aba0880d6a430e09be20104961ad3ed_0001_0001_0000100007_0000001_0_0001_ … (protein)
chain: SSSSDREEEVKELIEKLREAVEEGDEELVFKLTIRALSLAIEINNPELREEVARLAREAINSSSS

These binders were tested against il10ra, Q13651 (assay: yeast display titration).

Apparent Kd, inactive:
B1 no binding seen
B2 no binding seen
B3 no binding seen
B4 no binding seen
B5 no binding seen
B6 no binding seen
B7 no binding seen
B8 no binding seen
B9 no binding seen
B10 no binding seen
B11 no binding seen
B12 no binding seen
B13 no binding seen
B14 no binding seen
B15 no binding seen
B16 no binding seen
B17 no binding seen
B18 no binding seen
B19 no binding seen
B20 no binding seen
B21 no binding seen
B22 no binding seen
B23 no binding seen
B24 no binding seen
B25 no binding seen
B26 no binding seen
B27 no binding seen
B28 no binding seen
B29 no binding seen
B30 no binding seen
B31 no binding seen
B32 no binding seen
B33 no binding seen
B34 no binding seen
B35 no binding seen
B36 no binding seen
B37 no binding seen

Random excerpt: 2 records from the list.
Apparent Kd, inactive:
B1 no binding seen
B2 no binding seen
